Results deposited as PubChem BioAssay AID1224830 (NIAID, 2016).
Shown is an unselected part of about 18,000 reagents tested. In the full data, about 2,900 (16%) got an active call. 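Calls are made per well; low scores hint the gene aids the LPS response, high scores that it dampens it.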 Unmarked entries are inactive. Repeated entries: four replicate wells of each siRNA pool. Reagent sequences are not shown.

Aim: 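Host factors that control LPS-induced TNF expression in human macrophages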 (primary screen)
Cell system: human THP-1 monocytic leukaemia cells, TNF dual-luciferase reporter clone, PMA-differentiated to macrophage-like cells
Reagent: siRNA pool against human genes, 50 nM
Timing: LPS for 4 h, given about 3 days after siRNA transfection
Challenge: bacterial LPS (TLR4 ligand), 10 ng/ml
Measurement: 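Ratio of firefly to renilla light, scaled to the plate median and expressed as a robust z-score per replicate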
Reading the numbers: TNF reporter robust z-score: higher = stronger TNF reporter response to LPS
Hit rule: 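Each well counts as active if its z-score is over 2.8 or under -1.5; controls are left without a call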

no.	Target gene	TNF reporter robust z-score
1	RPL11	-0.91
2	RPL11	-0.13
3	RPL11	-0.63
4	RPL11	-0.37
5	RNASE10	3.47 (active)
6	RNASE10	2.82 (active)
7	RNASE10	1.68
8	RNASE10	5.86 (active)
9	ABHD6	0.92
10	ABHD6	-0.06
11	ABHD6	0.2
12	ABHD6	1.7
13	HMGN4	-0.46
14	HMGN4	0.47
15	HMGN4	-0.34
16	HMGN4	0.4
17	PPM1N	2.95 (active)
18	PPM1N	1.41
19	PPM1N	1.46
20	PPM1N	0.68
21	LINC00336	0.78
22	LINC00336	1.92
23	LINC00336	0.9
24	LINC00336	1.05
25	ASPDH	-0.29
26	ASPDH	-0.06
27	ASPDH	0.12
28	ASPDH	0.07
29	NXPE2	0.31
30	NXPE2	0.53
31	NXPE2	-0.58
32	NXPE2	-0.21
33	ZNF208	-0.25
34	ZNF208	1.86
35	ZNF208	0.33
36	ZNF208	0.45
37	MAP3K20	-0.46
38	MAP3K20	2.12
39	MAP3K20	0.41
40	MAP3K20	0.01
41	CRBN	1.89
42	CRBN	1.53
43	CRBN	0.9
44	CRBN	0.74
45	ADGRD1	-0.84
46	ADGRD1	-0.93
47	ADGRD1	-0.66
48	ADGRD1	0.16
49	API5	-0.36
50	API5	-0.04
51	API5	-0.03
52	API5	-0.72
53	ADRB3	-0.1
54	ADRB3	0
55	ADRB3	-0.54
56	ADRB3	0.14
57	TRDMT1	0.84
58	TRDMT1	1.16
59	TRDMT1	0.36
60	TRDMT1	1.15
61	KLHDC4	-0.09
62	KLHDC4	0.72
63	KLHDC4	0.5
64	KLHDC4	0.99
65	CXXC5	0.14
66	CXXC5	-0.19
67	CXXC5	-0.13
68	CXXC5	0.75
69	TGM4	0.49
70	TGM4	0.82
71	TGM4	0.43
72	TGM4	0.04
73	RAB40B	-1.12
74	RAB40B	0.8
75	RAB40B	1.41
76	RAB40B	0.9
77	COX14	-1.83 (active)
78	COX14	-0.6
79	COX14	-1.29
80	COX14	-1.07
81	LMAN2L	0.27
82	LMAN2L	2.56
83	LMAN2L	0.78
84	LMAN2L	0.46
85	STAB2	0.26
86	STAB2	0.25
87	STAB2	0.6
88	STAB2	0.14
89	ISCA1P1	-0.73
90	ISCA1P1	-0.24
91	ISCA1P1	-0.48
92	ISCA1P1	-0.21
93	RAD54L	-0.12
94	RAD54L	0.59
95	RAD54L	0.27
96	RAD54L	0.9
97	PCDHGA6	0.24
98	PCDHGA6	0.58
99	PCDHGA6	-0.04
100	PCDHGA6	-0.13
101	SLC27A4	-0.31
102	SLC27A4	1.43
103	SLC27A4	0.21
104	SLC27A4	1.49
105	SAMD9	1.97
106	SAMD9	0.22
107	SAMD9	1.04
108	SAMD9	0.46
109	LETM2	0.16
110	LETM2	-0.21
111	LETM2	-0.35
112	LETM2	0.51
